Measured data: PubChem BioAssay AID1259424 (University of Nebraska Medical Center, 2018)
Test: 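Seek colon cancer survival genes behaving like KSR1, using a six-gene signature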 (primary screen). Cells: human HCT116 colon cancer cells. Knock-down reagent: siRNA pool against human genes, 50 nM. Read-out: 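Log2 levels of six mRNAs (branched-DNA multiplex), adjusted by two reference genes and the non-targeting median, then scored against the average KSR1 knockdown pattern as Pearson r and euclidean distance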. Direction: mean correlation with KSR1 profile: higher = expression change more like KSR1 knockdown; mean distance from KSR1 profile: higher = expression change less like KSR1 knockdown.
The deposit covers about 14,000 reagents; this is an unselected part. 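Higher correlation or smaller distance means closer resemblance to KSR1 loss; control wells, including KSR1 knockdowns, recur on many plates.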 Not all columns of the deposit are shown. No sequences are given here. The record does not give: the time to read-out.

Gene,mean correlation with KSR1 profile,mean distance from KSR1 profile
SF3A3,0.0669,2.99
ANKK1,0.437,2.58
PDE7A,0.00139,2.85
GSTA3,0.795,1.05
PARP4,-0.789,3
DECR2,0.0777,4.02
CANT1,0.264,3.91
RFC5,-0.0193,3.47
CUZD1,-0.493,3.16
HCAR2,0.542,1.56
PRSS22,-0.234,1.6
COMT,-0.233,3.55
MLLT6,0.76,0.995
TTK,-0.185,4.16
SNAPC3,0.769,0.979
CD177,0.223,1.61
RPL15,0.394,6.05
SMCO4,-0.603,3.89
ABHD12,0.105,2.1
PLA2G2E,0.288,2.25

Targets above whose target name begins with P or p:
Gene,mean correlation with KSR1 profile,mean distance from KSR1 profile
PDE7A,0.00139,2.85
PARP4,-0.789,3
PRSS22,-0.234,1.6
PLA2G2E,0.288,2.25
